# Measured values published in article PMC11534217.
# Amino acid sequences for entries named in this document (tags omitted). Residues count along the entry.
# UniProt P02769, 25-607: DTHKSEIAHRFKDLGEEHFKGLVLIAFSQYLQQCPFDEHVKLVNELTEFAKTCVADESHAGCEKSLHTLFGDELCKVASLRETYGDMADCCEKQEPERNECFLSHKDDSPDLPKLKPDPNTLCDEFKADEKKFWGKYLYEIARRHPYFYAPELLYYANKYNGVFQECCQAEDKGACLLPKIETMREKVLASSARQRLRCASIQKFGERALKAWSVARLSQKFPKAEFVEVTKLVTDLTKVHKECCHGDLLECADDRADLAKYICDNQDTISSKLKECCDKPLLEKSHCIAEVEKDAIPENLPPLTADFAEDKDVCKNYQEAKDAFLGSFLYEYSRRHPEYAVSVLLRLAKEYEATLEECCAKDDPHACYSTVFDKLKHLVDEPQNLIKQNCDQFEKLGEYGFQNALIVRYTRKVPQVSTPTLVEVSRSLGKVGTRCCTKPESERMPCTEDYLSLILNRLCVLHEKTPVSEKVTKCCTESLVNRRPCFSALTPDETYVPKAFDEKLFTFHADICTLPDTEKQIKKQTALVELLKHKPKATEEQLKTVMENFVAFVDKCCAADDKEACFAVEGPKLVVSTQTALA
# The exact form of at least one protein or probe is not confirmed. For some assays here: Negatives hold for the conditions tested. For some assays here: At least one verdict rests on a figure or table, not on a statement of the authors. For some assays here: Where a protein sequence is shown, tags need not be part of it.
# Assays:
# [1] = molecular target: BSA (bovine serum albumin) (UniProt P02769); assay: EMSA; conditions: 50 mg/ml BSA alone, 100 nM Cy5-HSE; EMSA: 200 nM HSF1, 100 nM DNA, 25 mM HEPES pH 7.4, 150 mM NaCl, 10% glycerol, 3 mM beta-mercaptoethanol, 38-40 C or ice, then ice 30 min, 1% agarose TBE 4 C; commercial protein; label: 5' Cy5 on printed strand
# [2] = molecular target: T1, HSF1 trimer (SEC-purified) (human (Homo sapiens)) (UniProt Q00613); assay: fluorescence polarization; conditions: Kd fitted but value not in the material, FP: 30 nM DNA, 150 mM NaCl, 50 mM HEPES pH 7.2, 1 mM DTT, 0.05% Tween-20, 25 C, recombinant protein, residues 1-529, protein details: N-terminal His6-TEV, cleaved by TEV before assay, label: 5' FAM on printed strand
# T1 sequence (looked up): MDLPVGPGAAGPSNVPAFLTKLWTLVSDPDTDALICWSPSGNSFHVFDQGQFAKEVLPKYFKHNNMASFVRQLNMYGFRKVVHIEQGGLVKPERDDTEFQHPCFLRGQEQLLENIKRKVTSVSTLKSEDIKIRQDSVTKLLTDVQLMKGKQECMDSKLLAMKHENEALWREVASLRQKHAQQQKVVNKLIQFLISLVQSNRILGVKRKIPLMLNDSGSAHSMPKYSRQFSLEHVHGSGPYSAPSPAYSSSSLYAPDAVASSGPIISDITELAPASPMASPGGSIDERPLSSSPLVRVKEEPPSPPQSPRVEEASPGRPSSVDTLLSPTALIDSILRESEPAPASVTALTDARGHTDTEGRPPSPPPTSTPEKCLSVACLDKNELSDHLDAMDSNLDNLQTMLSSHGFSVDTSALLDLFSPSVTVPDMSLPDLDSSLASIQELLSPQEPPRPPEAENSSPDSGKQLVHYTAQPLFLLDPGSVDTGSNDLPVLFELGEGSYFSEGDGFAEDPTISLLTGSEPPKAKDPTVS
Sequence,binding result [1],binding result [2]
CCCCTTCCCGAATATTCCCCC (double strand) [Cy5-HSE],no binding,–
CCCCTTCCCGAATATTCCCCC (double strand) [FAM-HSE],–,binds
